Assay: 4 h corrosion weight loss test (corrosion inhibition performance)
Details: 1000 ppm corrosion inhibitor; for Surface morphology: P110 carbon steel after 4 h in 20% hydrochloric acid at 90° C.; for Corrosion rate: P110 carbon steel, 20% hydrochloric acid, 90° C., 4 h
Description: The corrosion inhibition performance of corrosion inhibitors in the embodiments 1 to 4 is determined by a 4 h corrosion weight loss test at 90° C. using 20% hydrochloric acid as a corrosive medium and P110 carbon steels. The amount of corrosion inhibitors is 1000 ppm.

**Q.** Which results are given for `CC(O)C[N+](Cc1ccc2ccccc2c1)(CC(C)O)C(CC(=O)CC(=C(c1ccccc1)c1ccccc1)c1ccccc1)c1cccc(-c2cccs2)c1` (centres unmarked) [Embodiment 4]?
**A.** Surface morphology: Smooth and flat; Corrosion rate: 11.47 gm^−2h^−1

**Q.** What does the source list for `O=C(/C=C/c1ccccc1)CC(c1cccc(-c2cccs2)c1)[N+](Cc1ccccc1)(Cc1ccccc1)Cc1ccccc1` (centres unmarked) [Embodiment 1]?
**A.** Surface morphology: Smooth and flat; Corrosion rate: 9.87 gm^−2h^−1

**Q.** Which Surface morphology does the source give for `O=C(/C=C/c1ccccc1)CC(/C=C/c1ccccc1)[N+]1(C(c2ccccc2)(c2ccccc2)c2ccccc2)C=Cc2ccccc21` (centres unmarked) [Embodiment 3] here?
**A.** Its Surface morphology is “Smooth and flat”.

**Q.** What about the Corrosion rate of the same compound?
**A.** Its Corrosion rate is 10.16 gm^−2h^−1.

**Q.** With `O=C(CC(=C(c1ccccc1)c1ccccc1)c1ccccc1)CC(/C=C/c1ccccc1)[N+]1(Cc2ccc3ccccc3c2)CCCCC1C(c1ccccc1)c1ccccc1` (centres unmarked) [Embodiment 2] as the compound, how does the Surface morphology read?
**A.** The Surface morphology was “Smooth and flat”.

**Q.** What about the Corrosion rate of the same compound?
**A.** The Corrosion rate was 14.71 gm^−2h^−1.
